These are yes or no findings as the source states them, for the method shown. Binding calls can cover weak binding; strength is not graded here.

The target of the test is Ada3 (Beauveria bassiana), BD-Ada3 (Beauveria bassiana) (UniProt J5K3I2). Briefly: two-hybrid; Y2HGold yeast co-transformed with pGADT7 (AD, prey) and pGBKT7 (BD, bait) plasmids; growth on SD-His-Leu-Trp medium with X-α-Gal.

Take “Ada2 (Beauveria bassiana), AD-Ada2 (from UniProt J4UTH7)”: the binding entry is “binds”.
